Measurements reported in PubChem BioAssay AID504786 (Drosophila RNAi Screening Center, 2011).
In all, the deposit lists about 21,000 reagents; below is a random part of those with a known target gene and a result. 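Primary screen; positive scores mean lost reporter signal, so the sign may be inverted from the usual convention.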 A plus sign joins genes that one reagent is predicted to hit.

Assay: 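Positive regulators of HIF-driven reporter output in Drosophila cells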 (primary screen)
Cells: Drosophila S2 cells with a stable HIF luciferase reporter
Reagent: long dsRNA against Drosophila genes, about 0.2 µg dsRNA per well of a 384-well plate
Duration: three days of knock-down, then 20 h of DFO before reading
Treatment: desferrioxamine (DFO) at 100 µM, an iron chelator that mimics hypoxia, for 20 h
Detection: 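Firefly luciferase driven by the mouse ldh-a hypoxia-response element, measured after 20 h of 100 µM DFO; z-scores per plate, higher means more signal lost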
Direction: z-score: higher = stronger loss of HIF reporter signal

| Target gene | dsRNA | z-score, replicate 1 | z-score, replicate 2 | z-score, replicate 3 | z-score, replicate 4 |
| --- | --- | --- | --- | --- | --- |
| CG14646 | DRSC12232 | -0.3 | -0.7 | -0.9 | -0.2 |
| CG13690 | DRSC00359 | -0.3 | 0.3 | – | – |
| Irk2 (Inwardly rectifying potassium channel 2) | DRSC15569 | -0.3 | -0.2 | – | – |
| MCPH1 (Microcephalin) | DRSC06309 | -0.2 | -0.5 | – | – |
| MCPH1 (Microcephalin) | DRSC07308 | -0.2 | -0.6 | – | – |
| CG7377 | DRSC10830 | -0.2 | 0.4 | – | – |
| Tango10 (Transport and Golgi organization 10) | DRSC19807 | 0.1 | 0.2 | – | – |
| CG4382 | DRSC02743 | -0.3 | -0.5 | – | – |
| Liprin-alpha | DRSC02132 | -0.1 | 0 | – | – |
| CG33483 | DRSC14019 | 0 | -0.1 | – | – |
| CG1907 | DRSC15399 | -0.4 | -0.5 | – | – |
| Eglp4 (Entomoglyceroporin 4) | DRSC04438 | -0.2 | -0.4 | – | – |
| RpL37A (Ribosomal protein L37A) | DRSC02899 | 2.6 | 4.2 | – | – |
| CG4914 | DRSC10458 | -0.2 | -0.4 | – | – |
| CG7443 | DRSC16244 | -0.4 | -1.1 | – | – |
| Pez | DRSC03397 | -0.3 | -0.8 | – | – |
| Ir51b (Ionotropic receptor 51b) | DRSC05540 | 0 | -0.3 | – | – |
| Dic4 | DRSC10317 | -0.1 | 0.2 | – | – |
| dj (don juan) | DRSC12625 | -0.1 | -0.1 | – | – |
| CG3225 | DRSC00578 | -0.3 | -0.5 | – | – |
| CG9784 | DRSC20210 | -0.4 | 0.5 | – | – |
| CG2200 | DRSC19840 | -0.3 | -1.1 | – | – |
| CG14787 | DRSC18606 | -0.4 | -0.4 | – | – |
| CG10194 | DRSC02025 | -0.3 | -0.6 | – | – |
| betaggt-I (beta subunit of type I geranylgeranyl transferase) | DRSC03494 | -0.2 | 0.1 | – | – |
| odd (odd skipped) | DRSC00832 | 0.7 | 1.4 | – | – |
| CG15891 + CG15892 | DRSC18095 | -0.1 | -0.4 | – | – |
| CG15891 + CG15892 | DRSC18096 | -0.1 | -0.3 | – | – |
| CG31100 | DRSC14453 | -0.3 | -1.1 | – | – |
| CG31100 | DRSC14455 | -0.1 | -0.5 | – | – |
| CG4576 | DRSC15604 | -0.3 | -0.4 | – | – |
| CG12517 | DRSC02173 | -0.1 | -0.1 | – | – |
| CG7059 | DRSC16187 | -0.9 | -0.8 | – | – |
| CG10927 | DRSC06014 | 3.6 | 3.2 | – | – |
| ihog (interference hedgehog) | DRSC03157 | -0.3 | -0.7 | – | – |
| CG12448 | DRSC01967 | -0.4 | 0 | – | – |
| CG14856 | DRSC14980 | -0.2 | -0.3 | – | – |
| G6P (Glucose-6-Phosphatase) | DRSC00414 | 0.6 | 0.7 | – | – |
| Spn100A (Serpin 100A) | DRSC14596 | -0.3 | -0.2 | – | – |
| CG17134 | DRSC02583 | -0.1 | 0.1 | – | – |
| Kap-alpha3 (karyopherin alpha3) | DRSC16976 | 0.1 | -0.1 | – | – |
| CG31792 | DRSC02604 | -0.3 | -0.1 | – | – |
| Sf3b1 (Splicing factor 3b subunit 1) | DRSC00535 | 7.1 | 7.2 | – | – |
| Chchd2 (Coiled-coil-helix-coiled-coil-helix domain containing 2) | DRSC19931 | -0.3 | 0 | – | – |
| CG8661 | DRSC20115 | 0.1 | 1.3 | – | – |
| kra (krasavietz) | DRSC12320 | -0.2 | -0.4 | – | – |
| SPARC (Secreted protein, acidic, cysteine-rich) | DRSC14123 | -0.4 | -0.3 | – | – |
| CG18094 | DRSC02655 | -0.3 | -0.4 | – | – |
| CycJ (Cyclin J) | DRSC08653 | -0.3 | -0.6 | – | – |
| Orai | DRSC05684 | -0.5 | -0.1 | – | – |
| CG32643 | DRSC18962 | -0.3 | -0.3 | – | – |
| Ilp7 (Insulin-like peptide 7) | DRSC17895 | -0.3 | 0 | – | – |
| CG15571 | DRSC18059 | -0.2 | -0.5 | – | – |
| Ppcs (Phosphopantothenoylcysteine synthetase) | DRSC14127 | -0.2 | -0.2 | – | – |
| eIF2Bepsilon (eukaryotic translation initiation factor 2B subunit epsilon) | DRSC18769 | -0.2 | -0.9 | – | – |
| CG4318 | DRSC19887 | -0.3 | -1 | – | – |
| CG6928 | DRSC10749 | 0 | -0.6 | – | – |
| Sox100B | DRSC15090 | 3.2 | 0.6 | – | – |
| Sox100B | DRSC16866 | -0.3 | -0.1 | – | – |
| BHD (Birt-Hogg-Dube) | DRSC11017 | -0.3 | -0.1 | – | – |
| prt (portabella) | DRSC16894 | -0.2 | 0.7 | – | – |
| Bug22 (Basal body up regulated gene 22) | DRSC02842 | 0.5 | 0.8 | – | – |
| CG16756 | DRSC18115 | -0.1 | 0 | – | – |
| mRpS10 (mitochondrial ribosomal protein S10) | DRSC15557 | 0.5 | 0.6 | – | – |
| l(2)k09913 (lethal (2) k09913) | DRSC04699 | -0.1 | -0.5 | – | – |
| CG9014 | DRSC01979 | -0.4 | -0.1 | – | – |
| CG12831 | DRSC06179 | -0.2 | -0.1 | – | – |
| Phb1 (Prohibitin 1) | DRSC03563 | 0 | 0.1 | – | – |
| Rilpl (Rab interacting lysosomal protein like) | DRSC18494 | -0.2 | -0.1 | – | – |
| psh (persephone) | DRSC19990 | -0.3 | -0.5 | – | – |
| CG31949 | DRSC00110 | -0.1 | -0.3 | – | – |
| CG42816 + CG42815 | DRSC11230 | -0.1 | -0.4 | – | – |
| mRpS35 (mitochondrial ribosomal protein S35) | DRSC08551 | 0.7 | 0.7 | – | – |
| CG8319 | DRSC16407 | 0.2 | -0.2 | – | – |
| CG17199 | DRSC15192 | 0.1 | 0.2 | – | – |
| fipi (factor of interpulse interval) | DRSC00465 | 2.2 | 3.7 | – | – |
| CG10226 | DRSC09715 | -0.4 | -0.4 | – | – |
| Ugt301D1 (UDP-glycosyltransferase family 301 member D1) | DRSC02021 | -0.3 | 1.1 | – | – |
| Alp4 (Alkaline phosphatase 4) | DRSC14116 | 0 | -0.2 | – | – |
| Traf-like (TNF-receptor-associated factor-like) | DRSC19894 | -0.3 | -0.5 | – | – |
| CG9849 | DRSC04573 | -0.3 | 0 | – | – |
| CG31643 | DRSC00906 | 0.1 | 0.1 | – | – |
| IntS10 (Integrator 10) | DRSC08173 | -0.3 | -0.5 | – | – |

13 entries from above, reformatted.
Target gene | dsRNA | z-score, replicate 1 | z-score, replicate 2 | z-score, replicate 3 | z-score, replicate 4
CG12448 | DRSC01967 | -0.4 | 0 | – | –
CG14856 | DRSC14980 | -0.2 | -0.3 | – | –
G6P (Glucose-6-Phosphatase) | DRSC00414 | 0.6 | 0.7 | – | –
Spn100A (Serpin 100A) | DRSC14596 | -0.3 | -0.2 | – | –
CG17134 | DRSC02583 | -0.1 | 0.1 | – | –
Kap-alpha3 (karyopherin alpha3) | DRSC16976 | 0.1 | -0.1 | – | –
CG31792 | DRSC02604 | -0.3 | -0.1 | – | –
Sf3b1 (Splicing factor 3b subunit 1) | DRSC00535 | 7.1 | 7.2 | – | –
Chchd2 (Coiled-coil-helix-coiled-coil-helix domain containing 2) | DRSC19931 | -0.3 | 0 | – | –
CG8661 | DRSC20115 | 0.1 | 1.3 | – | –
kra (krasavietz) | DRSC12320 | -0.2 | -0.4 | – | –
SPARC (Secreted protein, acidic, cysteine-rich) | DRSC14123 | -0.4 | -0.3 | – | –
CG18094 | DRSC02655 | -0.3 | -0.4 | – | –
